Results deposited as PubChem BioAssay AID743454 (Peter MacCallum Cancer Centre, 2014).
This is one part, drawn at random, of about 18,000 reagents tested. Of all reagents, 450 (2.5%) were called active. 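Single biological run; no consistent viability z cut-off exists, so the class columns, not z-scores, define the calls.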 Entries without a mark were called inactive. Reagent sequences are not shown.

Aim: 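Genes whose loss kills vorinostat-resistant colon cancer cells under vorinostat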 (primary screen)
Cells: human HCT116-VR colon cancer cells, selected for vorinostat resistance
Knock-down reagent: siRNA pool against human genes, 40 nM siRNA pool
Timing: vorinostat for 24 h, read-out about 72 h after transfection
Conditions: vorinostat at 2.5 µM final
Read-out: 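Cell viability by CellTiter-Fluor and caspase 3/7 activity by luminescence, each scaled to mock wells per plate, duplicates averaged, then robust z-scored over all plates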
Reading the numbers: viability robust z-score: higher = more viable cells than screen typical; caspase robust z-score: higher = more caspase 3/7 activity than screen typical
Hit rule: 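Hits are knock-downs in viability class RV1/RV2 or caspase class CA1/CA2, excluding ones that killed cells in the no-drug cell-count arm; hits then retested with single siRNAs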

KLF13 (GeneID 51621) scored viability hit class no change; caspase hit class no change; viability robust z-score 0.62; caspase robust z-score 0.82. PCDHGA8 (GeneID 9708) showed viability hit class no change; caspase hit class no change; viability robust z-score 1.38; caspase robust z-score -0.39. Depletion of PDX1 (GeneID 3651) gave: viability hit class no change (active); caspase hit class CA1 (caspase activation); viability robust z-score -1.72; caspase robust z-score 6.03. Silencing of EARS2 (GeneID 124454) resulted in: viability hit class no change; caspase hit class no change; viability robust z-score -0.66; caspase robust z-score 2.8. Against ARB2A (GeneID 83989), the values are viability hit class no change; caspase hit class no change; viability robust z-score -0.28; caspase robust z-score 1.18. SUSD2 (GeneID 56241) scored viability hit class no change; caspase hit class no change; viability robust z-score -1.15; caspase robust z-score 0.3.

OTULINL (GeneID 54491) gave viability hit class no change; caspase hit class no change; viability robust z-score -0.1; caspase robust z-score -0.06. For SMAD4 (GeneID 4089), the values are viability hit class no change; caspase hit class no change; viability robust z-score -0.08; caspase robust z-score 0.08. Knock-down of DYRK1A (GeneID 1859) came out at: viability hit class no change; caspase hit class no change; viability robust z-score 0.3; caspase robust z-score -0.66. Against AHSP (GeneID 51327) the deposit lists viability hit class no change; caspase hit class no change; viability robust z-score -3.92; caspase robust z-score -1.37. Silencing of POLD3 (GeneID 10714) resulted in: viability hit class no change; caspase hit class no change; viability robust z-score -0.52; caspase robust z-score -0.42. SUGP2 (GeneID 10147) scored viability hit class no change; caspase hit class no change; viability robust z-score 1.05; caspase robust z-score 0.24.

ISCA1 (GeneID 81689) scored viability hit class no change; caspase hit class no change; viability robust z-score -0.29; caspase robust z-score -0.76. Knock-down of B3GNT4 (GeneID 79369) gave: viability hit class no change; caspase hit class no change; viability robust z-score 0.97; caspase robust z-score 0.22.

2 entries from above, reduced to “caspase robust z-score”:
SUGP2 (GeneID 10147): 0.24
ISCA1 (GeneID 81689): -0.76
